Taken from: PubChem BioAssay AID1508597 (Cure First, 2020)

Screen: 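Survival screen with siRNA in ovarian cancer cells derived from patients, with or without rucaparib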 (primary screen)
Cell system: human ovarian carcinoma lines grown from tumours: OCI-P5x (papillary serous) and OCI-C5x (clear cell)
Knock-down reagent: siRNA pool against human genes, 1.25 pmol siRNA per well
Timing: 72 h or 96 h, depending on the cell culture
Treatment: rucaparib 20 µM (about IC30) or vehicle, present until read-out
Rucaparib or vehicle: Vehicle
Cell line: OCI-P5x (serous)
Detection: 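Luminescent ATP-based viability assay read 72 or 96 h after transfection, depending on culture, given as normalised percent viability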
Direction: viability, normalised: higher = more viable cells remaining
Call rule: 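Active when normalised viability falls below 80 percent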
Meaning of the calls: active = viability under 80%; inactive = viability 80% or more
This is an unselected part of the about 2,100 reagents, under one of the conditions tested. 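Calls flag viability under 80% in either arm, not effects specific to rucaparib; the reference for percent is not stated.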 A reagent listed more than once was tested more than once; the source does not tell the runs apart. No sequences are given here. Not stated in the record: the 100% reference.

| target gene | PubChem SID | technical replicate | viability, normalised (%) | Outcome |
| --- | --- | --- | --- | --- |
| PDE12 | SID405526682 | 1 | 68.2 | active |
| PDE12 | SID405526682 | 2 | 57.5 | active |
| PDE12 | SID405526682 | 3 | 135 | inactive |
| FAAP24 | SID405528305 | 1 | 64.3 | active |
| FAAP24 | SID405528305 | 2 | 67.8 | active |
| FAAP24 | SID405528305 | 3 | 78.4 | active |
| ETF1 | SID405526767 | 1 | 52.8 | active |
| ETF1 | SID405526767 | 2 | 37.9 | active |
| ETF1 | SID405526767 | 3 | 53.9 | active |
| NAGK | SID405528542 | 1 | 76.5 | active |
| NAGK | SID405528542 | 2 | 89 | inactive |
| NAGK | SID405528542 | 3 | 73.2 | active |
| MAGI2 | SID405527768 | 1 | 80.1 | inactive |
| MAGI2 | SID405527768 | 2 | 53.8 | active |
| MAGI2 | SID405527768 | 3 | 62.6 | active |
| SGK3 | SID405527736 | 1 | 67.8 | active |
| SGK3 | SID405527736 | 2 | 54.4 | active |
| SGK3 | SID405527736 | 3 | 65 | active |
| PDE4A | SID405526689 | 1 | 71.6 | active |
| PDE4A | SID405526689 | 2 | 67.2 | active |
| PDE4A | SID405526689 | 3 | 68.9 | active |
| MYLK2 | SID405527865 | 1 | 59.9 | active |
| MYLK2 | SID405527865 | 2 | 59.3 | active |
| MYLK2 | SID405527865 | 3 | 64.1 | active |
| BBC3 | SID405528020 | 1 | 84.8 | inactive |
| BBC3 | SID405528020 | 2 | 85.5 | inactive |
| BBC3 | SID405528020 | 3 | 94.2 | inactive |
| TTBK2 | SID405527723 | 1 | 83 | inactive |
| TTBK2 | SID405527723 | 2 | 77.1 | active |
| TTBK2 | SID405527723 | 3 | 67.9 | active |
| PYGO1 | SID405527218 | 1 | 46.6 | active |
| PYGO1 | SID405527218 | 2 | 46.8 | active |
| PYGO1 | SID405527218 | 3 | 51.9 | active |
| DSTYK | SID405528538 | 1 | 61.4 | active |
| DSTYK | SID405528538 | 2 | 58.9 | active |
| DSTYK | SID405528538 | 3 | 67.8 | active |
| PRDM13 | SID405527183 | 1 | 49.1 | active |
| PRDM13 | SID405527183 | 2 | 58.1 | active |
| PRDM13 | SID405527183 | 3 | 70.5 | active |
| HIRIP3 | SID405526861 | 1 | 65.7 | active |
| HIRIP3 | SID405526861 | 2 | 59.5 | active |
| HIRIP3 | SID405526861 | 3 | 68.7 | active |
| FOXA3 | SID405526794 | 1 | 60.9 | active |
| FOXA3 | SID405526794 | 2 | 75.2 | active |
| FOXA3 | SID405526794 | 3 | 61.8 | active |
| NTHL1 | SID405528271 | 1 | 59.4 | active |
| NTHL1 | SID405528271 | 2 | 71.8 | active |
| NTHL1 | SID405528271 | 3 | 68.4 | active |

Copied from the entries so far (3 entries):
| target gene | PubChem SID | technical replicate | viability, normalised (%) | Outcome |
| --- | --- | --- | --- | --- |
| FAAP24 | SID405528305 | 2 | 67.8 | active |
| FAAP24 | SID405528305 | 3 | 78.4 | active |
| ETF1 | SID405526767 | 1 | 52.8 | active |

Additional results follow:
| target gene | PubChem SID | technical replicate | viability, normalised (%) | Outcome |
| --- | --- | --- | --- | --- |
| GAK | SID405527645 | 1 | 82.2 | inactive |
| GAK | SID405527645 | 2 | 70.2 | active |
| GAK | SID405527645 | 3 | 56.8 | active |
| PRMT9 | SID405527200 | 1 | 48.6 | active |
| PRMT9 | SID405527200 | 2 | 38.2 | active |
| PRMT9 | SID405527200 | 3 | 131 | inactive |
| RAD54L | SID405527223 | 1 | 60.2 | active |
| RAD54L | SID405527223 | 1 | 53.5 | active |
| RAD54L | SID405527223 | 2 | 55 | active |
| RAD54L | SID405527223 | 2 | 47.8 | active |
| RAD54L | SID405527223 | 3 | 63.9 | active |
| RAD54L | SID405527223 | 3 | 65 | active |
| STK11 | SID405527704 | 1 | 51.6 | active |
| STK11 | SID405527704 | 2 | 55.5 | active |
| STK11 | SID405527704 | 3 | 59.3 | active |
| NODAL | SID405527084 | 1 | 65 | active |
| NODAL | SID405527084 | 2 | 67.6 | active |
| NODAL | SID405527084 | 3 | 83.5 | inactive |
| RASGRF1 | SID405526409 | 1 | 59.3 | active |
| RASGRF1 | SID405526409 | 2 | 48 | active |
| RASGRF1 | SID405526409 | 3 | 54.2 | active |
| PCDHB14 | SID405527122 | 1 | 33.5 | active |
| PCDHB14 | SID405527122 | 2 | 34.4 | active |
| PCDHB14 | SID405527122 | 3 | 50.7 | active |
| PCSK9 | SID405527132 | 1 | 64 | active |
| PCSK9 | SID405527132 | 2 | 68.6 | active |
| PCSK9 | SID405527132 | 3 | 150 | inactive |
